# PubChem BioAssay AID1224826 – NIAID | 2016
# Assay: 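Regulators of Tlr4 signalling leading to Tnf-alpha expression in macrophages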 (primary screen)
# System: RAW264.7 G9 macrophages from mouse bearing reporters for p65 (GFP) and the Tnf promoter (mCherry)
# Reagent: siRNA pool against mouse genes, 100 nM
# Duration: 16 h of LPS stimulation, after 2 days of siRNA transfection
# Challenge: bacterial lipopolysaccharide (Salmonella minnesota R595), 10 ng/ml
# Measured: 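Nuclear mCherry signal of the Tnf promoter reporter measured by imaging after background removal, scaled to each plate median and turned into robust z-scores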
# Direction: Tnf reporter robust z-score: higher = stronger Tnf promoter reporter signal after LPS; Tnf reporter intensity: higher = stronger Tnf promoter reporter signal
# Active means: 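a well counts as active at a score of -1.3 or below (Tlr4 knock-down control median) or above 3 (raised signal); controls and wells holding fewer than 50 cells are excluded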
# Calls: active = Tnf reporter clearly lowered or raised; inactive = no clear change in Tnf reporter
# The whole screen tested about 17,000 reagents; shown is a part drawn at random. About 1,110 of all reagents (6.6%) count as active. 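Active means lowered or raised reporter signal; replicate intensities are raw and not normalised per plate.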 Some reagents were tested in more than one well and are listed for each.
Gene,Tnf reporter robust z-score,fewer than 50 cells in well,"Tnf reporter intensity, replicate 1","Tnf reporter intensity, replicate 2",call
Aff4 (GeneID 93736),-0.64,enough cells in well,188,118,inactive
Sorbs2 (GeneID 234214),-0.09,enough cells in well,175,182,inactive
Foxo4 (GeneID 54601),-1.31,enough cells in well,166,98.9,active
Ywhae (GeneID 22627),-0.54,enough cells in well,191,185,inactive
Abraxas2 (GeneID 109359),1.33,enough cells in well,180,208,inactive
Gemin7 (GeneID 69731),-1.19,enough cells in well,129,94.8,inactive
Mrpl39 (GeneID 27393),1.86,enough cells in well,277,224,inactive
Tsc22d1 (GeneID 21807),-0.06,enough cells in well,202,148,inactive
Anapc2 (GeneID 99152),-0.2,enough cells in well,150,166,inactive
Atg4d (GeneID 235040),2.62,enough cells in well,329,303,inactive
Hspb7 (GeneID 29818),0.26,enough cells in well,276,189,inactive
Cnbp (GeneID 12785),-0.99,enough cells in well,200,105,inactive
Vmn1r232 (GeneID 171227),,fewer than 50 cells per well; well left out of calls,52.2,41.8,inactive
Fer (GeneID 14158),0.52,enough cells in well,293,159,inactive
Rgl1 (GeneID 19731),,fewer than 50 cells per well; well left out of calls,88,77.3,inactive
Or8g33 (GeneID 235248),0.78,enough cells in well,166,187,inactive
Htt (GeneID 15194),0.03,enough cells in well,230,199,inactive
Cdc42ep5 (GeneID 58804),-0.24,enough cells in well,157,153,inactive
Elk1 (GeneID 13712),-1.38,enough cells in well,110,137,active
Cd2 (GeneID 12481),0.5,enough cells in well,234,295,inactive
Mau2 (GeneID 74549),,fewer than 50 cells per well; well left out of calls,255,210,inactive
Slc18a2 (GeneID 214084),0.36,enough cells in well,85.5,144,inactive
Cd99l2 (GeneID 171486),-1.05,enough cells in well,166,58.2,inactive
Arfgap1 (GeneID 228998),,fewer than 50 cells per well; well left out of calls,69,150,inactive
Lama1 (GeneID 16772),-0.01,enough cells in well,258,136,inactive
Rps27a (GeneID 78294),,fewer than 50 cells per well; well left out of calls,43.1,36.7,inactive
Abcf3 (GeneID 27406),1.29,enough cells in well,297,268,inactive
Xpo5 (GeneID 72322),1.1,enough cells in well,189,150,inactive
Rab7 (GeneID 19349),2.62,enough cells in well,600,374,inactive
Bbs9 (GeneID 319845),2.57,enough cells in well,247,281,inactive
Unc5c (GeneID 22253),-0.7,enough cells in well,195,151,inactive
Ccdc86 (GeneID 108673),1.17,enough cells in well,238,244,inactive
Il2rb (GeneID 16185),-0.06,enough cells in well,223,155,inactive
Eid3 (GeneID 66341),4.26,enough cells in well,509,271,active
Rexo2 (GeneID 104444),,fewer than 50 cells per well; well left out of calls,92.4,45.9,inactive
Lmbr1l (GeneID 74775),-0.52,enough cells in well,210,168,inactive
Casp7 (GeneID 12369),0.17,enough cells in well,153,172,inactive
Gamt (GeneID 14431),-0.38,enough cells in well,236,195,inactive
Ceacam9 (GeneID 26368),2.17,enough cells in well,243,362,inactive
Togaram2 (GeneID 320159),-0.17,enough cells in well,166,62.3,inactive
Zfat (GeneID 380993),0.63,enough cells in well,120,186,inactive
Med4 (GeneID 67381),-0.81,enough cells in well,155,182,inactive
Klb (GeneID 83379),-0.64,enough cells in well,149,114,inactive
Or7g35 (GeneID 258517),,fewer than 50 cells per well; well left out of calls,56.5,93.9,inactive
Mrpl19 (GeneID 56284),-0.82,enough cells in well,160,50.4,inactive
Sp6 (GeneID 83395),,fewer than 50 cells per well; well left out of calls,0,300,inactive
Zfp9 (GeneID 22750),0.34,enough cells in well,149,127,inactive
Mrgprx1 (GeneID 404242),-0.8,enough cells in well,190,64.3,inactive
Mrgprx1 (GeneID 404242),-1.23,enough cells in well,131,163,inactive
Sema6a (GeneID 20358),0.63,enough cells in well,103,144,inactive
Lins1 (GeneID 72635),0.13,enough cells in well,103,161,inactive
Rab5b (GeneID 19344),-0.6,enough cells in well,278,142,inactive
Impg2 (GeneID 224224),-0.47,enough cells in well,259,161,inactive
Bach2 (GeneID 12014),2.58,enough cells in well,264,312,inactive
Snrnp48 (GeneID 67797),2.7,enough cells in well,374,329,inactive
Ubn2 (GeneID 320538),0.2,enough cells in well,220,164,inactive
Il6 (GeneID 16193),0.38,enough cells in well,236,194,inactive
Or4k6 (GeneID 258360),,fewer than 50 cells per well; well left out of calls,53.6,65,inactive

A few values from the list.
Ceacam9 (GeneID 26368), Tnf reporter intensity, replicate 2 = 362
Under “Tnf reporter robust z-score”, Unc5c (GeneID 22253) is entered as -0.7
Med4 (GeneID 67381), Tnf reporter robust z-score: -0.81
Under “Tnf reporter robust z-score”, Togaram2 (GeneID 320159) has -0.17
Result of Elk1 (GeneID 13712) under “Tnf reporter intensity, replicate 2”: 137
Value for Bbs9 (GeneID 319845) in “Tnf reporter robust z-score”: 2.57
